Laboratory results taken from PMC4094855.
These are yes or no findings as the source states them, for the method shown. Binding seen in cells or lysates may run through a third protein. Some entries that bind do so weakly or less than the wild type.

Protein sequences, listed by entry. Tags and fused reporters are not part of them.
UniProt P34932: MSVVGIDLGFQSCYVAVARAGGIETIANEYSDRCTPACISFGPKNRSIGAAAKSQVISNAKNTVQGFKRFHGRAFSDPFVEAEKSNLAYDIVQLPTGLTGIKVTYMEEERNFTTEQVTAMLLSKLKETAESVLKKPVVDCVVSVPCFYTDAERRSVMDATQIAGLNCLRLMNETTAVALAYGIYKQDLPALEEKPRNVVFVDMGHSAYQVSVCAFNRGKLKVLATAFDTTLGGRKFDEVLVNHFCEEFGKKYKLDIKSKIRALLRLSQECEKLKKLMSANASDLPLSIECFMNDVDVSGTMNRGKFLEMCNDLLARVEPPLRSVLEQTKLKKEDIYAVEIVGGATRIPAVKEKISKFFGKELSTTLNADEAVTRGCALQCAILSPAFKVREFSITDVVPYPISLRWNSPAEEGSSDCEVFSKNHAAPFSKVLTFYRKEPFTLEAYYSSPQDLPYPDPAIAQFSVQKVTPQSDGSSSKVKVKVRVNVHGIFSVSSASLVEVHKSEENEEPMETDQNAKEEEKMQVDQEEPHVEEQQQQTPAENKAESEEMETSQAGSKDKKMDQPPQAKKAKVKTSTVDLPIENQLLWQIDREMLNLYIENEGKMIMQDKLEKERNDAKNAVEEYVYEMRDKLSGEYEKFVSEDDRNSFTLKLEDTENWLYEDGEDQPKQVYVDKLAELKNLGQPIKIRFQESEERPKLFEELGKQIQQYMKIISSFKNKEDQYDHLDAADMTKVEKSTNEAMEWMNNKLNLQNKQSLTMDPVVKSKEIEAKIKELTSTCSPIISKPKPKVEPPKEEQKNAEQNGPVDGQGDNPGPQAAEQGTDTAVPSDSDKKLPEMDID
UniProt P04264: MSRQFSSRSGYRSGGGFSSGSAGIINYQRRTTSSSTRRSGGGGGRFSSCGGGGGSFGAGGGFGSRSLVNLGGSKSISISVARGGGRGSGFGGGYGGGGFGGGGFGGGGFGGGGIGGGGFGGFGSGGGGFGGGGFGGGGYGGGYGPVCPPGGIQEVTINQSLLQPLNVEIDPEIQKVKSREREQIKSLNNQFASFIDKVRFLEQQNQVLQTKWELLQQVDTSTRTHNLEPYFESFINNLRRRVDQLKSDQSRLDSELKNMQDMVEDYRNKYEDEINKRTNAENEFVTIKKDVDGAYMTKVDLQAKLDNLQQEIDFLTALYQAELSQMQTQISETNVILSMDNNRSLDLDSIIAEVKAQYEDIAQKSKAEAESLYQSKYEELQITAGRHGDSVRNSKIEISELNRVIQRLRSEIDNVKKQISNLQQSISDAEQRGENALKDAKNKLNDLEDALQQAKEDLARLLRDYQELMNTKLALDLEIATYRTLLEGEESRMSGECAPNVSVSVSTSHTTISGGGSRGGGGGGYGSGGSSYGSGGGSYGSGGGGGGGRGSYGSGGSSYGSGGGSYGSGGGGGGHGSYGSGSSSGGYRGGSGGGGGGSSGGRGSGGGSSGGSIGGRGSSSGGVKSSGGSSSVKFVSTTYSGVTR

Target: Hsp74 (human (endogenous in BLZ211 bladder cancer cells)) (UniProt P34932)
Assay: co-IP; purified McAb immobilised on gel in spin cups (ProFound Co-IP Kit, Pierce); BLZ211 total cell lysate (M-PER); eluate run on a gel, bands identified by LC-MS/MS

binding: binds
Substance: keratin 1 (from UniProt P04264 1-644)
